No constants are given. Whether binding was seen depends on the method and setting. Binding seen in cells or lysates may run through a third protein. For some assays here: Binding calls can cover weak binding; strength is not graded here. Tags and fused reporters may be left off the sequences shown.

This passage reports binding results from publication PMC7442838.

The target of test [1] is T1, TMEM59-Myc (full length TMEM59, Myc-tagged) (human) (UniProt Q9BXS4).
T1 sequence: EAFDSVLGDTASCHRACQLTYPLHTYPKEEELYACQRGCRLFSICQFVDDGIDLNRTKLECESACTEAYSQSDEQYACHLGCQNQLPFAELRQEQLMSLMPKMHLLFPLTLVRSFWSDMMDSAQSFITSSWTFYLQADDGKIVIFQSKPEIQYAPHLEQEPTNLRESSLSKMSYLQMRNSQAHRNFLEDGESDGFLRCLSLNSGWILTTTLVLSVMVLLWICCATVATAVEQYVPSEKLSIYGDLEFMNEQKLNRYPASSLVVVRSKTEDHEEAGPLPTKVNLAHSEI
The experiment in a line: co-IP; BV2 cells co-transfected for 24 h with Myc- and GFP-tagged plasmids; NP-40 lysis buffer (25 mM Tris-HCl pH 7.6, 150 mM NaCl, 1 mM EDTA, 1% Nonidet P-40); immunoprecipitation with antibodies against Myc or GFP or control mouse IgG and Protein G Agarose overnight; immunoblot for Myc or GFP.

The target of test [2] is T2, TMEM59-GFP (full length TMEM59, GFP-tagged) (human) (UniProt Q9BXS4).
T2 sequence: T1 sequence
Described as above.

In the case of “TREM2-CTF-GFP (TREM2 C-terminal fragment) (domain or fragment)”, the binding result in test [1] is reported as “binds”. Take “TREM2-NTF-Myc (TREM2 N-terminal fragment) (domain or fragment)”: the binding result in test [2] is listed as “no binding”.
